Results published in patent US20080095778A1, “Treatment Of Fungal Infections” (priority 2004, published 2008).
For at least one compound, name, drawing or mass did not settle the structure.

Tested on: Aspergillus species
Test: Antifungal activity with Mycograb antibody, summary over the Aspergillus species examined
Assay type: cell-based
Conditions: summary of Tables 1-4; agent combined with Mycograb antibody
Experimental: An inoculum suspension was prepared in buffered RPMI with glutamine medium by probing colonies from a 7 day old Sabouraud plate. The suspension was adjusted to 0.09-0.11 (80% to 82% transmittance) for Aspergillus species, 0.15-0.17 (68% to 70% transmittance). The inoculum was diluted a further 1:2 when added to the antifungal agents in the assay (final inoculum (0.4×10^4 to 0.5×10^4). For AMB and Mycograb®, either alone or in combination, the endpoint was determined as the concentration to produce no growth (MIC-0). Microtitre plates were incubated at 37° C. without agitation for 48 hours for Aspergillus species. For caspofungin, voriconazole and itraconazole, either alone or in combination with Mycograb® antibody, the MIC endpoint was determined as the concentration resulting in a prominent decrease in turbidity (≧50% growth inhibition, MIC-2) compared to the growth control (Keele et al. 2001; Espinel-Ingroff 2003). The final inhibitory concentration (FIC) was calculated for each drug by dividing the MIC in the presence of the second drug by the MIC in its absence. For each combination, two fractions were produced which were summated to produce the fractional final inhibitory concentration. Synergy was defined by value of ≦0.5, indifference was defined by a value of >0.5 to <4.0, and antagonism was defined by a value of ≧4.0 (Matthews et al., 2003).

**Q.** How did the “Antifungal activity / surprising effect when used in combination with Mycograb antibody” value turn out when CCC(C)n1ncn(-c2ccc(N3CCN(c4ccc(OCC5COC(Cn6cncn6)(c6ccc(Cl)cc6Cl)O5)cc4)CC3)cc2)c1=O (stereo not shown) [ITZ, itraconazole] was run?
**A.** surprisingly high level of antifungal activity against all the species examined
